At least one structure is not confirmed: it was looked up by name or label, or the drawing left a doubt.
Test system: carrageenan-induced paw edema
Assay: Rat carrageenan-induced paw edema model, paw swelling
Assay type: in vivo
Conditions: MePredAc alone, 0.01, 0.03 or 0.1 mg/kg

CC(=O)OCC(=O)[C@@]1(O)CC[C@H]2[C@@H]3C[C@H](C)C4=CC(=O)C=C[C@]4(C)[C@H]3[C@@H](O)C[C@@]21C [methyl prednisolone acetate, methylprednisolone acetate]
Paw edema, dose response: dose-dependent reduction in paw edema

Reference: patent US20070198063A1, “Electrical devices and anti-scarring drug combinations” (priority 2005, published 2007)
